Experimental data taken from PubChem BioAssay AID248 (DTP/NCI, 2004).
The list does not hold the whole screen: it covers a few groups of compounds. Other doses and runs of a compound may be missing. T/C gives the treated animals as a percentage of the vehicle group. For survival time, this PubChem deposit counts one and a half times the control or more as active, and values a quarter to a half above the control carry no call in these data; other NCI protocols may use other cut-offs. Schedule codes are those of the source, taken here to give the interval after Q, in days (D) or hours (H), and the number of doses after X. Some doses were run more than once; the results are listed from low to high. Some schedule codes hold Z or #, which are not explained here. Some T/C values are followed by the survivors on the day toxicity was checked, most often the fifth; without a count or a note in brackets, all were alive then.

Test system: L1210 leukemia ip in BDF1 mice, survival T/C
Assay: NCI In Vivo Anticancer Drug Screen. Data for tumor model L1210 Leukemia (intraperitoneal) in B6D2F1 (BDF1) mice
Settings: T/C endpoint: mean survival time, higher T/C = longer survival

OC(CNCCCl)C(O)C(O)C(O)CNCCCl (configuration not stated)
T/C (dose: 8.0 mg/kg/injection, schedule: Q01DX Z (ip), vehicle: saline): 135 and 139 % of control
T/C (dose: 8.45 mg/kg/injection, schedule: Q01DX Z (ip), vehicle: carboxymethylcellulose (CMC)): 131 % of control
T/C (dose: 10.0 mg/kg/injection, schedule: Q01DX001 (ip), vehicle: saline, evaluated on day 30): 120, 129, 130 % of control
T/C (dose: 10.0 mg/kg/injection, schedule: Q01DX001 (ip), vehicle: saline, run until all animals had died): 123 % of control
T/C (dose: 10.0 mg/kg/injection, schedule: Q01DX001 (oral), vehicle: saline): 103 % of control
T/C (dose: 10.0 mg/kg/injection, schedule: Q01DX002 (ip), vehicle: saline): 117 and 118 % of control
T/C (dose: 10.0 mg/kg/injection, schedule: Q01DX005 (ip), vehicle: saline): 143 % of control
T/C (dose: 10.0 mg/kg/injection, schedule: Q01DX006 (iv), vehicle: saline): 110 % of control
T/C (dose: 10.0 mg/kg/injection, schedule: Q01DX009 (ip), vehicle: saline): 145 and 164 % of control
T/C (dose: 10.0 mg/kg/injection, schedule: Q01DX009 (oral), vehicle: saline): 107 % of control
T/C (dose: 10.0 mg/kg/injection, schedule: Q01DX009 (sc), vehicle: saline): 106 % of control
T/C (dose: 10.0 mg/kg/injection, schedule: Q01DX Z (im), vehicle: saline): 112 % of control
T/C (dose: 10.0 mg/kg/injection, schedule: Q01DX Z (ip), vehicle: saline): 133 % of control
T/C (dose: 10.0 mg/kg/injection, schedule: Q01DX Z (oral), vehicle: saline): 97 % of control
T/C (dose: 10.0 mg/kg/injection, schedule: Q01DX Z (sc), vehicle: saline): 116 % of control
T/C (dose: 10.0 mg/kg/injection, schedule: Q03DX Z (ip), vehicle: saline): 153 % of control
T/C (dose: 10.0 mg/kg/injection, schedule: Q07DX Z (ip), vehicle: saline): 112 and 129 % of control
T/C (dose: 10.0 mg/kg/injection, schedule: Q## X002 (ip), vehicle: saline): 122 % of control
T/C (dose: 10.0 mg/kg/injection, schedule: Q## X003 (ip), vehicle: saline): 122 % of control
T/C (dose: 10.0 mg/kg/injection, schedule: Q## X008 (ip), vehicle: saline): 116 % of control
T/C (dose: 10.0 mg/kg/injection, schedule: Q## X016 (ip), vehicle: saline): 103 % of control
T/C (dose: 10.0 mg/kg/injection, schedule: Q## X024 (ip), vehicle: saline): 114 % of control
T/C (dose: 10.0 mg/kg/injection, schedule: Q#A X Z (ip), vehicle: saline): 89 % of control
T/C (dose: 11.0 mg/kg/injection, schedule: Q01DX015 (ip), vehicle: saline): 149 % of control
T/C (dose: 12.5 mg/kg/injection, schedule: Q01DX Z (ip), vehicle: saline): 102 % of control
T/C (dose: 15.0 mg/kg/injection, schedule: Q01DX001 (ip), vehicle: saline): 134 % of control
T/C (dose: 15.0 mg/kg/injection, schedule: Q01DX002 (ip), vehicle: saline): 115 and 122 % of control
T/C (dose: 15.0 mg/kg/injection, schedule: Q01DX009 (ip), vehicle: saline): 149 % of control
T/C (dose: 15.0 mg/kg/injection, schedule: Q03DX Z (ip), vehicle: saline): 134 and 159 % of control
T/C (dose: 15.0 mg/kg/injection, schedule: Q07DX Z (ip), vehicle: saline): 150 % of control
T/C (dose: 16.0 mg/kg/injection, schedule: Q01DX Z (ip), vehicle: saline): 172 % of control
T/C (dose: 16.9 mg/kg/injection, schedule: Q01DX Z (ip), vehicle: carboxymethylcellulose (CMC)): 127 % of control
T/C (dose: 17.0 mg/kg/injection, schedule: Q01DX015 (ip), vehicle: saline): 155 % of control
T/C (dose: 17.0 mg/kg/injection, schedule: Q01DX Z (ip), vehicle: carboxymethylcellulose (CMC)): 143 % of control
T/C (dose: 20.0 mg/kg/injection, schedule: Q01DX001 (ip), vehicle: saline): 109, 128, 132 % of control
T/C (dose: 20.0 mg/kg/injection, schedule: Q01DX001 (oral), vehicle: saline): 97 % of control
T/C (dose: 20.0 mg/kg/injection, schedule: Q01DX005 (ip), vehicle: saline): 172 % of control
T/C (dose: 20.0 mg/kg/injection, schedule: Q01DX006 (iv), vehicle: saline): 122 % of control
T/C (dose: 20.0 mg/kg/injection, schedule: Q01DX009 (ip), vehicle: saline): 156 and 165 % of control
T/C (dose: 20.0 mg/kg/injection, schedule: Q01DX009 (oral), vehicle: saline): 112 % of control [5 of 6 alive]
T/C (dose: 20.0 mg/kg/injection, schedule: Q01DX009 (sc), vehicle: saline): 118 % of control
T/C (dose: 20.0 mg/kg/injection, schedule: Q01DX Z (im), vehicle: saline): 129 % of control
T/C (dose: 20.0 mg/kg/injection, schedule: Q01DX Z (ip), vehicle: saline): 100 % of control
T/C (dose: 20.0 mg/kg/injection, schedule: Q01DX Z (oral), vehicle: saline): 103 and 118 % of control
T/C (dose: 20.0 mg/kg/injection, schedule: Q01DX Z (sc), vehicle: saline): 144 % of control
T/C (dose: 20.0 mg/kg/injection, schedule: Q## X002 (ip), vehicle: saline): 135 % of control
T/C (dose: 20.0 mg/kg/injection, schedule: Q## X003 (ip), vehicle: saline): 134 % of control
T/C (dose: 20.0 mg/kg/injection, schedule: Q## X008 (ip), vehicle: saline): 123 % of control
T/C (dose: 20.0 mg/kg/injection, schedule: Q## X016 (ip), vehicle: saline): 104 % of control
T/C (dose: 20.0 mg/kg/injection, schedule: Q## X024 (ip), vehicle: saline): 124 % of control
T/C (dose: 20.0 mg/kg/injection, schedule: Q#A X Z (ip), vehicle: saline): 113 and 118 % of control
T/C (dose: 23.0 mg/kg/injection, schedule: Q01DX001 (ip), vehicle: saline): 141 % of control
